Assay results as given in article PMC2695266.
These are yes or no findings as the source states them, for the method shown. Some entries that bind do so weakly or less than the wild type. For part of these data: Sequences can lack the tags named with a protein.

By UniProt entry, the sequences of proteins in these tests, tags left out. Residues count along the entry.
UniProt Q96DA6, residues 24-116: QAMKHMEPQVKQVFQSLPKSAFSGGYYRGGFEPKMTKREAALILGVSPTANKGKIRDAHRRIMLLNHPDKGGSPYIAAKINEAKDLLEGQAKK

Columns and labels:
[1] = molecular target: T1, soluble domain of human Tim16/Pam16 (human) (UniProt Q9Y3D7); test: co-purification (Ni-agarose, then gel filtration); same strategy as for hTim14/Pam18s-yTim16/Pam16s; data not shown
T1 sequence: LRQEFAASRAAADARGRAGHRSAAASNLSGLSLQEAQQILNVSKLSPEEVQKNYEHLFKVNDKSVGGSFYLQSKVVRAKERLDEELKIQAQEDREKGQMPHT

[2] = molecular target: T1, soluble domain of human Tim16/Pam16 (human); test: cross-linking; purified complexes, 1 mM DSS, room temperature, 20 mM Na-Hepes pH 7.4, 200 mM NaCl, 100 mM KCl, 1 mM MgCl2, 15 uM protein; SDS-PAGE on 16% gels; both purified
[3] = molecular target: T2, soluble domain of yeast Tim16/Pam16 (Saccharomyces cerevisiae) (UniProt P42949); test: as above
T2 sequence: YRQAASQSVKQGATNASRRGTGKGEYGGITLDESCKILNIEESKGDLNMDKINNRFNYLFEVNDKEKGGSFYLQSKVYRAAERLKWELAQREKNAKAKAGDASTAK

[4] = molecular target: T2, soluble domain of yeast Tim16/Pam16 (Saccharomyces cerevisiae); test: co-purification (Ni-agarose, then gel filtration); co-expressed in bacteria; only yTim16/Pam16s had an octahistidine tag; Ni-agarose column, tag cleaved with TEV protease, gel filtration; SDS-PAGE with Coomassie blue

Measured: binding

soluble domain of human Tim14/Pam18 (from UniProt Q96DA6 24-116) (domain or fragment)
binds: [1] | [2] | [3] | [4]

B1: soluble domain of yeast Tim14/Pam18 (domain or fragment, UniProt Q07914 84-168)
chain: KSISKGLNGGKSTTAFLKGGFDPKMNSKEALQILNLTENTLTKKKLKEVHRKIMLANHPDKGGSPFLATKINEAKDFLEKRGISK
binds: [1] | [2]
